Out of some 1,900 compounds screened, about 15 (0.8%) were called active.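 How the source made its calls: active means every replicate shows at least 50% inhibition; inconclusive means mean inhibition at least 50% but some replicate below; inactive means the rest.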 The list shows a part of the results.
Molecular target: DNA repair protein RAD52 homolog (Homo sapiens) (UniProt P43351)
Assay: inhibition of RAD52-mediated strand annealing – biochemical, FRET, single point, primary screen (AID 651660);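 further: 0% = median of neutral control wells and 100% = median of positive control wells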
Settings: Recombinant RAD52 ssDNA annealing, FRET fluorescence, 30 min; at 18.7 µM; active compounds read high

Sequences of proteins named here, by UniProt entry; tags and fusion partners are left off. A change or cut given only in a name is not applied to a line headed by its entry.
UniProt P43351: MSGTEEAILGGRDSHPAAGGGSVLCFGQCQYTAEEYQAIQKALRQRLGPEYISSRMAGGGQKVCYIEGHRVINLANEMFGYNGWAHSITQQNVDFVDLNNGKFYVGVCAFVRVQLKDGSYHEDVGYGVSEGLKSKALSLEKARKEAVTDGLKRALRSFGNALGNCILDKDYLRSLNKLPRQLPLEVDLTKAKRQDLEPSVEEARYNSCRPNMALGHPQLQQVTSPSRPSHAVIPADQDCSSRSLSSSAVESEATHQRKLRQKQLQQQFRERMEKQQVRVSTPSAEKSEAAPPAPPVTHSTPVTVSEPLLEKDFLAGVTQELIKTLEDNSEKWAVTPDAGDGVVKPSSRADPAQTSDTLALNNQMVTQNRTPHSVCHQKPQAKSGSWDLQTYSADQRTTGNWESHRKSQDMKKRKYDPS

Q: `Cc1cccc(C)c1NC1=NCCCS1` was tested. Which inhibition did it give?
A: The inhibition was inactive: -3.1%.

Q: For `CCNC(=O)[C@H]1O[C@@H](n2cnc3c(N)ncnc32)[C@H](O)[C@@H]1O`, which inhibition is on record?
A: The inhibition was inactive: -1.79%.

Q: Which inhibition does the source give for `CCn1ccnc1CN1CCCC(C(=O)c2cc(F)ccc2OC)C1` (stereo not given) here?
A: Its inhibition is inactive: -1.46%.

Q: `C=C1[C@@H](C)[C@H]2[C@H](Cc3ccccc3)NC(=O)[C@]23OC(=O)/C=C/[C@H](O)CCC[C@@H](C)C/C=C/[C@H]3[C@@H]1O` was tested. Which inhibition did it give?
A: Its inhibition is inactive: -0.777%.

Q: `C[N+]1(C)[C@@H]2CC[C@H]1CC(OC(=O)C(CO)c1ccccc1)C2` (stereo not given in full) was tested. Which inhibition did it give?
A: The inhibition was inactive: -3.53%.

Q: `CCOC(=O)C1=C(C)OC(N)=C(C(=O)OCC)[C@@]12C(=O)N(CC(N)=O)c1ccccc12` was tested. Which inhibition did it give?
A: The inhibition was inactive: 8.41%.

Q: How did the inhibition turn out when `CC/C(=C\C=C\[C@@H]1C=C[C@@H]2CCC[C@H]2[C@@H]1C(=O)c1ccc[nH]1)[C@@H]1O[C@@H]([C@@H](C)C(=O)O)CC[C@@H]1C` was run?
A: Its inhibition is inactive: -21.4%.

Q: With `Cc1nc2ccccc2c(=O)n1-c1ccc(C(=O)O)cc1` as the molecule, how does the inhibition read?
A: Its inhibition is inactive: -2.62%.

Q: How did the inhibition turn out when `Cc1c2ccncc2c(C)c2c1[nH]c1ccccc12` was run?
A: Its inhibition is inactive: 12.7%.

Q: How did the inhibition turn out when `COc1cc(/C=C2\C(=O)NC(=O)N(c3ccccc3)C2=O)c([N+](=O)[O-])cc1OC` was run?
A: Its inhibition is inactive: -77.9%.

Q: Which inhibition does the source give for `NC(=O)CN1CCCC1=O` here?
A: Its inhibition is inactive: -1.58%.

Q: `Cc1cc(OCc2cc(C(=O)O)oc2C)c2c3c(c(=O)oc2c1)CCCC3` was tested. Which inhibition did it give?
A: Its inhibition is inactive: -16.7%.

Q: How did the inhibition turn out when `O=C1NC(=O)C2(Cc3ccccc3N3CCCC32)C(=O)N1c1ccc(Cl)cc1` (stereo not given) was run?
A: Its inhibition is inactive: -34%.

Q: With `CCOC(=O)C(C)Oc1cc(C)cc2oc(=O)c3c(c12)CCCC3` (stereo not given) as the molecule, how does the inhibition read?
A: Its inhibition is inactive: -11.6%.

Q: For `O=C1C(=O)c2ccccc2-c2ccccc21`, which inhibition is on record?
A: Its inhibition is inactive: -11%.

Q: How did the inhibition turn out when `CN1C2CCC1CC(OC(=O)CCN1CCCC1)C2` (stereo not given) was run?
A: Its inhibition is inactive: -2.12%.

Q: How did the inhibition turn out when `C[N+](C)(C)Cc1ccccc1` was run?
A: The inhibition was inactive: -0.327%.

Q: Which inhibition does the source give for `O=c1[nH]c(=S)n(-c2ccccc2)c(O)c1/C=N/N1CCCCC1c1cccnc1` (stereo not given) here?
A: The inhibition was inactive: -92.1%.

Q: For `CN1CC[C@@]23CCCC[C@@H]2[C@@H]1Cc1ccc(O)cc13`, which inhibition is on record?
A: The inhibition was inactive: 1.8%.

Q: Which inhibition does the source give for `CC(C)(C)NCC(O)c1cc(Cl)c(N)c(Cl)c1` (stereo not given) here?
A: The inhibition was inactive: -12.2%.

Q: With `CN1C2CCC1CC(OC(=O)c1ccc(Cl)cc1)C2` (stereo not given) as the molecule, how does the inhibition read?
A: The inhibition was inactive: -12.3%.

Q: For `CCOC(=O)c1cc2c(cn1)[nH]c1ccccc12`, which inhibition is on record?
A: Its inhibition is inactive: 11.1%.

Q: How did the inhibition turn out when `COc1ccc(Cc2nccc3cc(OC)c(OC)cc23)cc1OC` was run?
A: Its inhibition is inactive: 19%.

Q: How did the inhibition turn out when `CC1CCC[C@H](O)CCCCCc2cc(O)cc(O)c2C(=O)O1` (stereo not given in full) was run?
A: Its inhibition is inactive: 15.5%.

Q: `CC12CN3CC(C)(CN(C1)C3c1cccs1)C2O` (stereo not given) was tested. Which inhibition did it give?
A: The inhibition was inactive: -10.9%.
